Biological target: T1, EhiCA (Entamoeba histolytica, UniProt C4LXK3)
T1 construct: gene EHI_073380; His-tag cleaved with thrombin; 21 kDa (21/25 kDa doublet); one Zn per chain; Zn ligands Cys50, His103, Cys106, dyad Asp52-Arg54; dimer and trimer seen on SDS-PAGE
T1 sequence (C4LXK3 1-188): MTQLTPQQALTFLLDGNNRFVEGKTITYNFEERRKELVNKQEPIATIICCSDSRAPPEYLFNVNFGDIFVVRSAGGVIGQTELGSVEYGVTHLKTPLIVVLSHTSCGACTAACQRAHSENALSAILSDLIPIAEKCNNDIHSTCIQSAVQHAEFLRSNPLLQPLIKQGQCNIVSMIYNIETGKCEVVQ
Format: biochemical
Details: read-out: KI (Acetazolamide)

CC(=O)Nc1nnc(S(N)(=O)=O)s1 [acetazolamide, 5-acetamido-1,3,4-thiadiazole-2-sulfonamide]
Ki: 0.509 µM
